Laboratory results taken from patent US6409648, “Polynucleotides encoding TRF1 binding proteins” (The Regents of the University of California).
For part of these data: At least one result comes from cells or an extract, where the contact may be indirect. For part of these data: Protein sequences can lack the tags named with them. For part of these data: Construct, isoform or probe ends are uncertain for at least one entry. For part of these data: Negatives hold for the conditions tested.

Columns and labels:
Assay in all cases: EMSA
[1] = molecular target: T1, 6his-Tin2 (human) (UniProt Q9BSI4); conditions: purified recombinant protein, protein details: 6his, baculovirus/Sf9
T1 sequence: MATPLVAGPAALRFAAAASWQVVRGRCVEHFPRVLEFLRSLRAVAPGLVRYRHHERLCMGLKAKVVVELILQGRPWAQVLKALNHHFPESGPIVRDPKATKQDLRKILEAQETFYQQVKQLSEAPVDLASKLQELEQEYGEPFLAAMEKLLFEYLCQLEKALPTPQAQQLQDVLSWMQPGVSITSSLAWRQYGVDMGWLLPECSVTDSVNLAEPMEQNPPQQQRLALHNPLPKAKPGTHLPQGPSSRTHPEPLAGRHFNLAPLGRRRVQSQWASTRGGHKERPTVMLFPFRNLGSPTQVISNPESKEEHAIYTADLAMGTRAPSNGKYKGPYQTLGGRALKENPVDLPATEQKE

[2] = molecular target: T2, GST-Tin2 (human) (UniProt Q9BSI4); conditions: Tin2 alone; purified recombinant protein; protein details: N-terminal GST, E. coli
T2 sequence: T1 sequence

[3] = molecular target: T3, Tin2 (in vitro translated) (human) (UniProt Q9BSI4); conditions: Tin2 alone; protein translated in vitro; protein details: N-terminal c-Myc epitope (13 aa)
T3 sequence: T1 sequence

[4] = molecular target: T4, Trf1 (HA-Trf1, nuclear extract) (human) (UniProt P54274); conditions: complex TT, Trf1 homodimer; protein in an extract
T4 sequence (looked up, limits assumed): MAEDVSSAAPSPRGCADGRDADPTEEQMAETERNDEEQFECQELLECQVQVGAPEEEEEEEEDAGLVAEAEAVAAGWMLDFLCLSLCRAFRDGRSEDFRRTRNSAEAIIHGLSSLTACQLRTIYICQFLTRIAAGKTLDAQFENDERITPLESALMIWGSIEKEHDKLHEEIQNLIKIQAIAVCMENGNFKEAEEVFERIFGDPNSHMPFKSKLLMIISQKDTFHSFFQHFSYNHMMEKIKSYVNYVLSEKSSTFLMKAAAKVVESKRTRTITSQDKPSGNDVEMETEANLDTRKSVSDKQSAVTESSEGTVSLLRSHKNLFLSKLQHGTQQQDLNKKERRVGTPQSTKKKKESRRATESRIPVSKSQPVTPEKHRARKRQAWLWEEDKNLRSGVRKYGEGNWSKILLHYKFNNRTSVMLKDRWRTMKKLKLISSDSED

[5] = system: Trf1 + GST-Tin2 complex (human); conditions: TT shifted to TT-AA and TT-AAX; protein in an extract; protein details: HA-Trf1 nuclear extract, N-terminal GST on Tin2
[6] = system: Trf1 + GST-Tin2-12 complex (human); conditions: TT shifted to TT-A and TT-AA, less efficient than Tin2-13; protein in an extract; protein details: HA-Trf1 nuclear extract, N-terminal GST on Tin2-12
[7] = system: Trf1 + GST-Tin2-13 complex (human); conditions: TT shifted to TT-A and TT-AA; protein in an extract; protein details: HA-Trf1 nuclear extract, N-terminal GST on Tin2-13
[8] = system: Trf1 + GST-Tin2-14 complex (human); conditions: TT shifted to TT-A and TT-AA, less efficient than Tin2-13; some TT-AAX; protein in an extract; protein details: HA-Trf1 nuclear extract, N-terminal GST on Tin2-14

| Sequence | binding result ([1]; Tin2 alone) | binding result [2] | binding result [3] | binding result [4] | binding result [5] | binding result [6] | binding result [7] | binding result [8] | binding result ([1]; no complex with Tin2 alone, label: 32P (6X-Tel), 5' biotin (Bi-6X-Tel), only the site is given) |
| --- | --- | --- | --- | --- | --- | --- | --- | --- | --- |
| TTAGGGTTAGGGTTAGGGTTAGGGTTAGGGTTAGGGTTAGGGTTAGGGTTAGGGTTAGGGTTAGGGTTAGGGTTAGGG (double strand) [[TTAGGG]13 double-stranded telomeric probe] | no binding | no binding | no binding | binds | binds | binds | binds | binds |  |
| TTAGGGTTAGGGTTAGGGTTAGGGTTAGGGTTAGGG (double strand) |  |  |  |  |  |  |  |  | no binding |
